PubChem BioAssay AID1224830 | NIAID | 2016
Purpose: 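Regulators of TLR4 signalling towards TNF-alpha in macrophage-like cells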 (primary screen). Cells: human THP-1 monocytic leukaemia cells, TNF dual-luciferase reporter clone, PMA-differentiated to macrophage-like cells. Reagents: siRNA pool against human genes, 50 nM. Timing: LPS for 4 h, given about 3 days after siRNA transfection. Treatment: bacterial LPS (TLR4 ligand), 10 ng/ml. Measurement: 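TNF firefly reporter luminescence divided by renilla, normalised to the plate median, then turned into a robust z-score for each replicate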. Reading the numbers: TNF reporter robust z-score: higher = stronger TNF reporter response to LPS. Rule for the call: 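Each well counts as active if its z-score is over 2.8 or under -1.5; controls are left without a call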.
Shown is an unselected part of about 18,000 reagents. Of all reagents, about 2,900 (16%) are marked active. 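Calls are made per well; low scores hint the gene aids the LPS response, high scores that it dampens it.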 Repeated entries: four replicate wells of each siRNA pool.

| target gene | PubChem SID | TNF reporter robust z-score | call |
| --- | --- | --- | --- |
| CHAF1B (GeneID 8208) | SID315452429 | -0.52 | inactive |
| CHAF1B (GeneID 8208) | SID315452429 | -0.01 | inactive |
| CHAF1B (GeneID 8208) | SID315452429 | -1.36 | inactive |
| CHAF1B (GeneID 8208) | SID315452429 | -1.08 | inactive |
| RNF222 (GeneID 643904) | SID315465087 | 0.8 | inactive |
| RNF222 (GeneID 643904) | SID315465087 | 1.25 | inactive |
| RNF222 (GeneID 643904) | SID315465087 | 0.16 | inactive |
| RNF222 (GeneID 643904) | SID315465087 | 1.4 | inactive |
| CCL13 (GeneID 6357) | SID315451335 | -0.93 | inactive |
| CCL13 (GeneID 6357) | SID315451335 | -0.55 | inactive |
| CCL13 (GeneID 6357) | SID315451335 | -1.02 | inactive |
| CCL13 (GeneID 6357) | SID315451335 | -0.76 | inactive |
| ELL (GeneID 8178) | SID315452419 | -1.19 | inactive |
| ELL (GeneID 8178) | SID315452419 | -1.2 | inactive |
| ELL (GeneID 8178) | SID315452419 | -0.93 | inactive |
| ELL (GeneID 8178) | SID315452419 | -1.08 | inactive |
| PIGA (GeneID 5277) | SID315450579 | -0.49 | inactive |
| PIGA (GeneID 5277) | SID315450579 | 0.88 | inactive |
| PIGA (GeneID 5277) | SID315450579 | 0 | inactive |
| PIGA (GeneID 5277) | SID315450579 | 2.66 | inactive |
| TBC1D8B (GeneID 54885) | SID315457238 | -1.36 | inactive |
| TBC1D8B (GeneID 54885) | SID315457238 | -0.56 | inactive |
| TBC1D8B (GeneID 54885) | SID315457238 | -1.05 | inactive |
| PSG11 (GeneID 5680) | SID315450881 | 0.58 | inactive |
| PSG11 (GeneID 5680) | SID315450881 | -0.06 | inactive |
| PSG11 (GeneID 5680) | SID315450881 | -0.18 | inactive |
| PSG11 (GeneID 5680) | SID315450881 | -0.08 | inactive |
| SERF1A (GeneID 8293) | SID315452460 | -0.93 | inactive |
| SERF1A (GeneID 8293) | SID315452460 | -0.5 | inactive |
| SERF1A (GeneID 8293) | SID315452460 | -0.85 | inactive |
| SERF1A (GeneID 8293) | SID315452460 | 0.36 | inactive |
| DIO3 (GeneID 1735) | SID315448312 | 3.46 | active |
| DIO3 (GeneID 1735) | SID315448312 | 2.55 | inactive |
| DIO3 (GeneID 1735) | SID315448312 | 1.77 | inactive |
| DIO3 (GeneID 1735) | SID315448312 | 4.25 | active |
| MEMO1 (GeneID 51072) | SID315456443 | 1.01 | inactive |
| MEMO1 (GeneID 51072) | SID315456443 | 1.15 | inactive |
| MEMO1 (GeneID 51072) | SID315456443 | 0.61 | inactive |
| MEMO1 (GeneID 51072) | SID315456443 | 0.33 | inactive |
| RANBP2 (GeneID 5903) | SID315451044 | -1.18 | inactive |
| RANBP2 (GeneID 5903) | SID315451044 | -0.76 | inactive |
| RANBP2 (GeneID 5903) | SID315451044 | -1.37 | inactive |
| RANBP2 (GeneID 5903) | SID315451044 | -1 | inactive |
| NAA11 (GeneID 84779) | SID315460499 | -0.99 | inactive |
| NAA11 (GeneID 84779) | SID315460499 | -0.21 | inactive |
| NAA11 (GeneID 84779) | SID315460499 | -0.8 | inactive |
| NAA11 (GeneID 84779) | SID315460499 | -1.02 | inactive |
| RFX2 (GeneID 5990) | SID315451112 | 0.15 | inactive |
| RFX2 (GeneID 5990) | SID315451112 | 0.99 | inactive |
| RFX2 (GeneID 5990) | SID315451112 | 0.5 | inactive |
| RFX2 (GeneID 5990) | SID315451112 | -0.07 | inactive |
| PCDHGA1 (GeneID 56114) | SID315458001 | -1.66 | active |
| PCDHGA1 (GeneID 56114) | SID315458001 | -1.47 | inactive |
| PCDHGA1 (GeneID 56114) | SID315458001 | -0.92 | inactive |
| PCDHGA1 (GeneID 56114) | SID315458001 | -1.38 | inactive |
| ANKRD16 (GeneID 54522) | SID315457057 | -1 | inactive |
| ANKRD16 (GeneID 54522) | SID315457057 | -0.61 | inactive |
| ANKRD16 (GeneID 54522) | SID315457057 | -0.48 | inactive |
| ANKRD16 (GeneID 54522) | SID315457057 | 0.14 | inactive |
| JPT2 (GeneID 90861) | SID315460866 | 0.43 | inactive |
| JPT2 (GeneID 90861) | SID315460866 | -0.35 | inactive |
| JPT2 (GeneID 90861) | SID315460866 | 0.88 | inactive |
| JPT2 (GeneID 90861) | SID315460866 | 0.63 | inactive |
| CFAP61 (GeneID 26074) | SID315455655 | -1.4 | inactive |
| CFAP61 (GeneID 26074) | SID315455655 | -0.67 | inactive |
| CFAP61 (GeneID 26074) | SID315455655 | -0.82 | inactive |
| CFAP61 (GeneID 26074) | SID315455655 | -0.66 | inactive |

The list goes on; the last 6 above are carried over.
| target gene | PubChem SID | TNF reporter robust z-score | call |
| --- | --- | --- | --- |
| JPT2 (GeneID 90861) | SID315460866 | 0.88 | inactive |
| JPT2 (GeneID 90861) | SID315460866 | 0.63 | inactive |
| CFAP61 (GeneID 26074) | SID315455655 | -1.4 | inactive |
| CFAP61 (GeneID 26074) | SID315455655 | -0.67 | inactive |
| CFAP61 (GeneID 26074) | SID315455655 | -0.82 | inactive |
| CFAP61 (GeneID 26074) | SID315455655 | -0.66 | inactive |
| KLHL2 (GeneID 11275) | SID315454735 | 0.84 | inactive |
| KLHL2 (GeneID 11275) | SID315454735 | 0.37 | inactive |
| KLHL2 (GeneID 11275) | SID315454735 | 0.38 | inactive |
| KLHL2 (GeneID 11275) | SID315454735 | 0.89 | inactive |
| RBM17 (GeneID 84991) | SID315460628 | 0.64 | inactive |
| RBM17 (GeneID 84991) | SID315460628 | 1.28 | inactive |
| RBM17 (GeneID 84991) | SID315460628 | 0.75 | inactive |
| RBM17 (GeneID 84991) | SID315460628 | 0.42 | inactive |
| B3GALT2 (GeneID 8707) | SID315452761 | 0.62 | inactive |
| B3GALT2 (GeneID 8707) | SID315452761 | -0.12 | inactive |
| B3GALT2 (GeneID 8707) | SID315452761 | 1.02 | inactive |
| B3GALT2 (GeneID 8707) | SID315452761 | 0.65 | inactive |
| SSTR5 (GeneID 6755) | SID315451658 | -0.25 | inactive |
| SSTR5 (GeneID 6755) | SID315451658 | -0.17 | inactive |
| SSTR5 (GeneID 6755) | SID315451658 | -0.49 | inactive |
| SSTR5 (GeneID 6755) | SID315451658 | 0.76 | inactive |
| SIPA1L1 (GeneID 26037) | SID315455631 | -0.53 | inactive |
| SIPA1L1 (GeneID 26037) | SID315455631 | -0.21 | inactive |
| SIPA1L1 (GeneID 26037) | SID315455631 | -0.92 | inactive |
| SIPA1L1 (GeneID 26037) | SID315455631 | -0.97 | inactive |
| OR9Q1 (GeneID 219956) | SID315463216 | -0.13 | inactive |
| OR9Q1 (GeneID 219956) | SID315463216 | 1.25 | inactive |
| OR9Q1 (GeneID 219956) | SID315463216 | -0.54 | inactive |
| OR9Q1 (GeneID 219956) | SID315463216 | 0.97 | inactive |
| TOMM34 (GeneID 10953) | SID315454485 | -0.58 | inactive |
| TOMM34 (GeneID 10953) | SID315454485 | -1.37 | inactive |
| TOMM34 (GeneID 10953) | SID315454485 | -0.81 | inactive |
| TOMM34 (GeneID 10953) | SID315454485 | -0.62 | inactive |
| RDH13 (GeneID 112724) | SID315461152 | -0.9 | inactive |
| RDH13 (GeneID 112724) | SID315461152 | -1.04 | inactive |
| RDH13 (GeneID 112724) | SID315461152 | -0.81 | inactive |
| RDH13 (GeneID 112724) | SID315461152 | -0.07 | inactive |
| DCP1B (GeneID 196513) | SID315462972 | -1.05 | inactive |
| DCP1B (GeneID 196513) | SID315462972 | -0.04 | inactive |
| DCP1B (GeneID 196513) | SID315462972 | 0.3 | inactive |
| DCP1B (GeneID 196513) | SID315462972 | 0.33 | inactive |
| PYROXD2 (GeneID 84795) | SID315460503 | 0.85 | inactive |
| PYROXD2 (GeneID 84795) | SID315460503 | 1.06 | inactive |
| PYROXD2 (GeneID 84795) | SID315460503 | -0.37 | inactive |
| PYROXD2 (GeneID 84795) | SID315460503 | 0.43 | inactive |
| C1orf94 (GeneID 84970) | SID315460617 | -1.08 | inactive |
| C1orf94 (GeneID 84970) | SID315460617 | -0.28 | inactive |
| C1orf94 (GeneID 84970) | SID315460617 | -0.8 | inactive |
| C1orf94 (GeneID 84970) | SID315460617 | -0.67 | inactive |
